Assay results from patent publication US20040192751A1, “Amino acid composition for ameliorating liver failure” (priority 2001, published 2004).
Some results were stated once for a whole list of compounds, not compound by compound.

Test system: mice in which alcoholic functional disorders of a liver were developed
Experiment: Death rate due to acute poisoning after ethanol administration
Assay type: in vivo
Conditions: after 25% ethanol administration (12 hours)

N[C@@H](Cc1c[nH]c2ccccc12)C(=O)O [2% Trp, tryptophane]
death rate due to acute poisoning: exceeded 15%
